Measurements reported in PubChem BioAssay AID686943 (Drosophila RNAi Screening Center, 2013).
In all, the deposit lists about 23,000 reagents; shown is a random part of those with a known target gene and a result. 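Extra replicates exist only for a retested subset of genes; insulin dose and duration not given; both raised and lowered dpERK matter.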 Reagents against one gene are numbered here. Names joined by + are all predicted targets of the reagent. Not all columns of the deposit are shown. Not stated in the record: the amount of reagent, the time to read-out.

Assay: 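Fly genes whose loss alters ERK activation after insulin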 (primary screen)
System: Drosophila S2R+ haemocyte-like cells expressing YFP-tagged ERK (Rolled)
Reagents: long dsRNA against Drosophila genes
Conditions: insulin stimulation versus unstimulated cells; dose and duration not given
Measured: 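Antibody staining for doubly phosphorylated ERK divided by ERK-YFP signal, as plate z-scores, in insulin-treated and untreated cells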
Reading the numbers: replicate 1, z-score of dpERK with insulin and replicate 2, z-score of dpERK with insulin: higher = more active ERK per ERK-YFP after insulin

gene knocked down | dsRNA no. | replicate 1, z-score of dpERK with insulin | replicate 2, z-score of dpERK with insulin
Acp65Aa (GeneID 38710) | 1 | 0 | 0.36
Mov10 (GeneID 36922) | 1 | -1.73 | -0.21
CG12099 (GeneID 38181) | 1 | 0.03 | 0.52
Rrp1 (GeneID 33500) | 1 | -0.48 | -0.47
SdhB (GeneID 35590) | 1 | 0.18 | 0.16
SdhB (GeneID 35590) | 2 | 0.37 | 0.26
Grip71 (GeneID 35130) | 1 | 2.05 | 0.29
CG8841 (GeneID 36336) | 1 | -0.34 | 0.14
CG8478 (GeneID 41194) | 1 | -0.44 | 1.22
Psi (GeneID 36889) | 1 | 2.09 | 1.42
Vsx1 (GeneID 31470) | 1 | -5.03 | 0.93
Vsx1 (GeneID 31470) | 2 | -1.27 | 0.24
CG6481 (GeneID 32843) | 1 | 0.55 | -1
CG5846 (GeneID 34326) | 1 | 0.07 | -0.02
TBC1D5 (GeneID 41628) | 1 | -0.2 | -0.17
CG34112 (GeneID 4379842) | 1 | -0.33 | 0.14
ppk31 (GeneID 318575) | 1 | -0.06 | 0.21
CAH14 (GeneID 37359) | 1 | 0.85 | 0.43
CAH14 (GeneID 37359) | 2 | 0.17 | -1.5
CG12679 (GeneID 33031) | 1 | -1.29 | -1.36
CG15019 (GeneID 38542) | 1 | 0.12 | -0.65
Pka-C1 (GeneID 34284) | 1 | -2.05 | -2.74
RasGAP1 (GeneID 39158) | 1 | -0.41 | -0.01
CG33286 (GeneID 2768984) | 1 | 0.74 | -0.57
CG31848 (GeneID 318980) | 1 | 0.04 | -0.06
lncRNA:CR32368 (GeneID 317997) | 1 | -0.31 | 0.43
Hipk (GeneID 38070) | 1 | 4.32 | 0.9
Hipk (GeneID 38070) | 2 | -0.95 | -0.31
CG10598 (GeneID 32713) | 1 | -0.86 | -0.83
Mst84B (GeneID 40840) | 1 | 0.8 | -0.28
CG13155 (GeneID 36346) | 1 | 0.22 | 0.14
Deaf1 (GeneID 40164) | 1 | 1 | -1.45
Deaf1 (GeneID 40164) | 2 | -0.57 | -0.59
SNCF (GeneID 39496) | 1 | 0.32 | 0.62
CG7556 (GeneID 32902) | 1 | 4.95 | 4.22
CG10444 (GeneID 37294) | 1 | 0.75 | 0.7
aop (GeneID 33392) | 1 | -3.3 | -3.61
hpRNA:CR18854 + IP3K1 | 1 | 1.29 | 1.17
ro (GeneID 43234) | 1 | -1.1 | -3.94
CG14731 (GeneID 41442) | 1 | 1.01 | 0.92
Liprin-gamma (GeneID 37552) | 1 | -0.68 | -0.66

Continued, starting with the last 2 of the part before.
gene knocked down | dsRNA no. | replicate 1, z-score of dpERK with insulin | replicate 2, z-score of dpERK with insulin
CG14731 (GeneID 41442) | 1 | 1.01 | 0.92
Liprin-gamma (GeneID 37552) | 1 | -0.68 | -0.66
ssp2 (GeneID 39540) | 1 | -0.12 | -0.21
CG11398 (GeneID 31070) | 1 | 0.48 | -0.37
CG5039 (GeneID 43100) | 1 | 0.13 | 0.18
CG30047 (GeneID 246414) | 1 | 0.14 | 0.27
Graf (GeneID 32522) | 1 | 0.19 | 0.38
lectin-21Ca (GeneID 53552) | 1 | 1.56 | 0.49
meru (GeneID 39727) | 1 | 0.48 | -0.38
meru (GeneID 39727) | 2 | 0.51 | 1.45
meru (GeneID 39727) | 3 | 0.1 | -0.94
CG3345 (GeneID 33192) | 1 | 0.11 | 0.2
CG6106 (GeneID 32816) | 1 | 0.76 | 0.45
CG4287 (GeneID 41939) | 1 | 0.11 | 0.27
Mocs2A + Mocs2B | 1 | -0.74 | -1.13
Mocs2A + Mocs2B | 2 | 0.76 | -0.12
CG30419 (GeneID 37879) | 1 | -0.74 | 0.91
CG30419 (GeneID 37879) | 2 | 0.18 | -0.5
CG30419 (GeneID 37879) | 3 | 0.26 | -0.35
CG5126 (GeneID 33306) | 1 | 1.1 | 0.03
CG7907 (GeneID 42539) | 1 | 0.8 | -0.49
Idgf1 (GeneID 34978) | 1 | 0.38 | -0.15
Ac13E (GeneID 32485) | 1 | 1.02 | 0.6
Pvr (GeneID 34127) | 1 | -9.5 | -7.2
CG34126 (GeneID 318872) | 1 | 0.01 | -0.04
CG34126 (GeneID 318872) | 2 | -1.84 | 0.81
CG18284 (GeneID 34460) | 1 | 0.13 | 0.53
CG18284 (GeneID 34460) | 2 | 0.3 | -0.65
CG8138 (GeneID 41619) | 1 | 0.73 | 0.43
arr (GeneID 44279) | 1 | 0.5 | 0.17
CG9240 (GeneID 32505) | 1 | 0.02 | 0.01
CG3176 + CR18166 + CG32817 | 1 | -0.99 | -0.69
CG3176 + CR18166 + CG32817 | 2 | -0.39 | -0.23
CG3176 + CR18166 + CG32817 | 3 | -1.95 | -2.2
